PubChem BioAssay AID743454 – Peter MacCallum Cancer Centre, 2014
Screen: 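Search for knock-downs that restore vorinostat killing in resistant colon cancer cells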 (primary screen). Cell system: human HCT116-VR colon cancer cells, selected for vorinostat resistance. Knock-down reagent: siRNA pool against human genes, 40 nM siRNA pool. Timing: vorinostat for 24 h, read-out about 72 h after transfection. Treatment: vorinostat at 2.5 µM final. Measurement: 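Cell viability by CellTiter-Fluor and caspase 3/7 activity by luminescence, each scaled to mock wells per plate, duplicates averaged, then robust z-scored over all plates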. Reading the numbers: viability robust z-score: higher = more viable cells than screen typical; caspase robust z-score: higher = more caspase 3/7 activity than screen typical. Rule for the call: 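Hits are knock-downs in viability class RV1/RV2 or caspase class CA1/CA2, excluding ones that killed cells in the no-drug cell-count arm; hits then retested with single siRNAs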.
Here is an unselected part of about 18,000 reagents. 450 of all reagents (2.5%) count as active. 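Single biological run; no consistent viability z cut-off exists, so the class columns, not z-scores, define the calls.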 Reagent sequences are not shown.

The first 2 records as a preview:
BRMS1: viability hit class = no change; caspase hit class = no change; viability robust z-score = -2.84; caspase robust z-score = 0.08; call = inactive
HOXA13: viability hit class = no change; caspase hit class = no change; viability robust z-score = -0.42; caspase robust z-score = -0.28; call = inactive

The listing, repeating the preview:
BRMS1: viability hit class = no change; caspase hit class = no change; viability robust z-score = -2.84; caspase robust z-score = 0.08; call = inactive
HOXA13: viability hit class = no change; caspase hit class = no change; viability robust z-score = -0.42; caspase robust z-score = -0.28; call = inactive
DEFB135: viability hit class = no change; caspase hit class = no change; viability robust z-score = 0.41; caspase robust z-score = 0.34; call = inactive
CDCA5: viability hit class = no change; caspase hit class = no change; viability robust z-score = -3.83; caspase robust z-score = 0.01; call = inactive
CAND2: viability hit class = no change; caspase hit class = no change; viability robust z-score = -1.61; caspase robust z-score = 4.25; call = inactive
TXNDC16: viability hit class = no change; caspase hit class = no change; viability robust z-score = 1.04; caspase robust z-score = -0.44; call = inactive
MTPAP: viability hit class = no change; caspase hit class = no change; viability robust z-score = 1.36; caspase robust z-score = -0.05; call = inactive
BTBD9: viability hit class = no change; caspase hit class = no change; viability robust z-score = 0.36; caspase robust z-score = -0.52; call = inactive
ESYT1: viability hit class = no change; caspase hit class = no change; viability robust z-score = 0.5; caspase robust z-score = 1.95; call = inactive
ZNF473: viability hit class = no change; caspase hit class = no change; viability robust z-score = 0.34; caspase robust z-score = -0.53; call = inactive
NEMF: viability hit class = no change; caspase hit class = no change; viability robust z-score = 0.22; caspase robust z-score = 1.54; call = inactive
NSDHL: viability hit class = no change; caspase hit class = no change; viability robust z-score = -1.54; caspase robust z-score = 2.24; call = inactive
TACC3: viability hit class = no change; caspase hit class = no change; viability robust z-score = -1.12; caspase robust z-score = 2.14; call = inactive
DES: viability hit class = no change; caspase hit class = no change; viability robust z-score = -2.06; caspase robust z-score = 4.15; call = inactive
NTM: viability hit class = no change; caspase hit class = no change; viability robust z-score = -2.5; caspase robust z-score = 2.93; call = inactive
NAP1L4: viability hit class = no change; caspase hit class = no change; viability robust z-score = -0.64; caspase robust z-score = 0.44; call = inactive
GP6: viability hit class = no change; caspase hit class = no change; viability robust z-score = 0.68; caspase robust z-score = 0.3; call = inactive
PAPOLG: viability hit class = no change; caspase hit class = no change; viability robust z-score = -0.36; caspase robust z-score = -0.86; call = inactive
H1-10: viability hit class = no change; caspase hit class = no change; viability robust z-score = -1.37; caspase robust z-score = 0.46; call = inactive
PAX5: viability hit class = no change; caspase hit class = no change; viability robust z-score = 0.54; caspase robust z-score = 0.9; call = inactive
EIF2B1: viability hit class = no change; caspase hit class = no change; viability robust z-score = 0.01; caspase robust z-score = -0.08; call = inactive
HOXA5: viability hit class = no change; caspase hit class = no change; viability robust z-score = -1.21; caspase robust z-score = -0.6; call = inactive
CBLN4: viability hit class = no change; caspase hit class = no change; viability robust z-score = -0.34; caspase robust z-score = -0.92; call = inactive
PRSS58: viability hit class = no change; caspase hit class = no change; viability robust z-score = 0.16; caspase robust z-score = -0.56; call = inactive
SLC7A11: viability hit class = no change; caspase hit class = no change; viability robust z-score = -0.06; caspase robust z-score = -1.13; call = inactive
RTBDN: viability hit class = no change; caspase hit class = no change; viability robust z-score = -0.63; caspase robust z-score = 1.96; call = inactive
EEF1B2: viability hit class = no change; caspase hit class = no change; viability robust z-score = 0.96; caspase robust z-score = 1.15; call = inactive
